The values below come from article PMC7819943, “Rice protein-binding microarrays: a tool to detect cis-acting elements near promoter regions in rice”.

Chains of the proteins cited; added tags and fusions are not shown.
UniProt Q0JBA9, entry or part of it: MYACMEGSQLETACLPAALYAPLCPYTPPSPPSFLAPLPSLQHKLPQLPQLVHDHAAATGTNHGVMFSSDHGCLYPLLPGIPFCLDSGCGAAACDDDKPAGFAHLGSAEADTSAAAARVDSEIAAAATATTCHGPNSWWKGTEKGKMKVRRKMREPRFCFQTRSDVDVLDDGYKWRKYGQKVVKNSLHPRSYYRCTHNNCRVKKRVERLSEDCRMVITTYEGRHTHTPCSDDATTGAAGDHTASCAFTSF

The list shows a part of the results.

The assay concerns the target OsWRKY34 (Oryza sativa, UniProt Q0JBA9 1-250). The assay is described as follows: protein-binding microarray (RPBM); PBS, 2% BSA, 51.3 ng/ul salmon testes DNA, 50 uM zinc acetate, 200 nM TF, 25 C, 1 h; high values mean tight binding. As to conditions: protein: recombinant; tags: N-terminal polyhistidine and DsRed monomer fusion (pET32a); label: CyDye5-dUTP incorporated in the synthesized complementary strand; 3' TTTTT single-stranded linker to array surface; dsDNA, one strand shown. In outline: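 An Axon 4000B scanner gave the binding signal as per-feature fluorescence intensity in arbitrary units. This followed washing of a custom Agilent array that had been incubated for 1 h at 25 °C with 200 nM protein in PBS, 2% BSA, salmon testes DNA and 50 µM zinc acetate. The proteins were transcription factors fused at the N-terminus to polyhistidine and DsRed, expressed in E. coli BL21-CodonPlus and purified on Ni–NTA.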
Consider “CTCCCATGCATGCAACCCTAGCTACACATTCCAAATAACTCGGAGTCACCTAGTGCAG”, for which the binding signal was 9170 fluorescence intensity (a.u.).
As for “GTCAGAAACATGTTTTTCTCGTATTTATCTTCTTTTTTTTCGGAGTCACCTAGTGCAG”, the binding signal was 10900 fluorescence intensity (a.u.).
The value for “GGAGGTCTAAGATTTTCTGGTATTTCGGTTTAGTGCGGATCGGAGTCACCTAGTGCAG” was 9650 fluorescence intensity (a.u.).
On to “TTCGCGGAGACTTATCGTCTCTCTTCCATTCTGCTTGAACCGGAGTCACCTAGTGCAG”, for which the binding signal is 8500 fluorescence intensity (a.u.).
Take “CTGTTAGTATGCCTGGTCTCCTCTACTGATGCTTGAATGCCGGAGTCACCTAGTGCAG”: the binding signal is 9850 fluorescence intensity (a.u.).
The value for “TTGTTTCGTCCTCACTCATCGCCGCTCCGCCATTGCCCAGCGGAGTCACCTAGTGCAG” was 11600 fluorescence intensity (a.u.).
“GCCGTCCTCGCCGCCGCCTCCGGCCCCGTCCTCGCCACTGCGGAGTCACCTAGTGCAG”: the binding signal is 8770 fluorescence intensity (a.u.).
As for “GCAATCACCATTTTGTAAACAAATCATGCATCCTGCCGGTCGGAGTCACCTAGTGCAG”, the binding signal was 9870 fluorescence intensity (a.u.).
Consider “GCTATCGCCGGTTTCGTCATCAATAATCTTCTCTGCCTCTCGGAGTCACCTAGTGCAG”, for which the binding signal is 8820 fluorescence intensity (a.u.).
The value for “TCTCTCCGTTTCACAATATAAGTCATTTTAGTATTTCTTACGGAGTCACCTAGTGCAG” was 10200 fluorescence intensity (a.u.); that for “AACCACTCTTCTCCTGACACCTCTCGCCGCCGCGTCTCTCCGGAGTCACCTAGTGCAG” was 14500 fluorescence intensity (a.u.); that for “TTTTCTATCAATATCATCTTCCATAGCGTCTTCCGTCGAGCGGAGTCACCTAGTGCAG” was 8490 fluorescence intensity (a.u.).
The figure for “TTTTCTCCGGCCGTTCGCCTGTTTTTGTTCGTGTGATAGCCGGAGTCACCTAGTGCAG” is 12400 fluorescence intensity (a.u.); for “CGACACTATATTCTGCTGTTTTTTTCCTTGTTGCCCGCATCGGAGTCACCTAGTGCAG” it is 8100 fluorescence intensity (a.u.).
On to “GGGTTTCAATCATACAAATTTTTTATGAGGTCTTTTAAAACGGAGTCACCTAGTGCAG”, for which the binding signal is 8120 fluorescence intensity (a.u.).
Turning to “TCTTTCGTTTTTGGTACGCACGCTTTTCAAATTATTCAATCGGAGTCACCTAGTGCAG”, the binding signal was 8770 fluorescence intensity (a.u.).
The value for “CCATATTTTAATGTATGACGCCATTGACTTTTTGTCCAACCGGAGTCACCTAGTGCAG” was 14500 fluorescence intensity (a.u.).
The value for “CATTTTGCAAGAGAGCTTCACCCAGCTCCGCTTCCATTTTCGGAGTCACCTAGTGCAG” was 10600 fluorescence intensity (a.u.); that for “ACCAATTGGTTTCACTCATCATTCATTCTTTCATTCCTCACGGAGTCACCTAGTGCAG” was 8980 fluorescence intensity (a.u.).
The figure for “TATTAATATTATTTTACTTACTCTGGAGCTTCTTGTCCATCGGAGTCACCTAGTGCAG” is 9870 fluorescence intensity (a.u.).
Take “GTACGGTAAATTCTAGTTTAACTCTAAGTCATTTTATAATCGGAGTCACCTAGTGCAG”: the binding signal is 8610 fluorescence intensity (a.u.).
The value for “TTAATTGGCTTTCTCGTTTTGTGTGCCCCGCTTTTAATATCGGAGTCACCTAGTGCAG” was 9300 fluorescence intensity (a.u.); that for “TTCTACTTCTACACCTCGCAATGAAAAAAACAAATTTGACCGGAGTCACCTAGTGCAG” was 8060 fluorescence intensity (a.u.); that for “TTGTCCAGTTTTCACTGTGTCTACACCGTTTTGTGTATTTCGGAGTCACCTAGTGCAG” was 10000 fluorescence intensity (a.u.).
Take “GCCCACTTCTGCCCAAATCGCATGTCCCGTCCAGGTTCACCGGAGTCACCTAGTGCAG”: the binding signal is 10400 fluorescence intensity (a.u.).
For the sequence “CCGCTTCCATCCATCCATCCATCCATCTCCCGTGGACTTGCGGAGTCACCTAGTGCAG”, the binding signal was 13300 fluorescence intensity (a.u.).
The value for “CATTTTGTTAGATTGAGTCTTTTCTTTCTTCTTCATCTATCGGAGTCACCTAGTGCAG” was 8400 fluorescence intensity (a.u.); that for “ACATGTCATACACACAACGTTTTATAGTCCGTGCTGCAGCCGGAGTCACCTAGTGCAG” was 9630 fluorescence intensity (a.u.); that for “GGACCACATGGACAGGTGCCCATCCAGCTCGGCTGTTCAACGGAGTCACCTAGTGCAG” was 8320 fluorescence intensity (a.u.).
The figure for “ACGTCCTCGGACCGCCTGACATCCCGTTGTATTTCTTGCGCGGAGTCACCTAGTGCAG” is 8080 fluorescence intensity (a.u.).
The value for “CAATCACATCCGCGCGCATTTGGCCTGCGCCTTCAAATTTCGGAGTCACCTAGTGCAG” was 12700 fluorescence intensity (a.u.).
For the sequence “ATTGTTCTGCTGCCTTGTGGAATTCCATGATTCATTTTTCCGGAGTCACCTAGTGCAG”, the binding signal is 8870 fluorescence intensity (a.u.).
The value for “TCGCCCCGCCATGCCGCTCACCGTCCTCGCGCCTTGCCTGCGGAGTCACCTAGTGCAG” was 8980 fluorescence intensity (a.u.).
Regarding “TTTTGTTTGTTTTGATGTCGTGTCATGTAGATACTCGTACCGGAGTCACCTAGTGCAG”, the binding signal is 9370 fluorescence intensity (a.u.).
The value for “TTCTCAATGTTCTTTTGGCTTTAGGCATATAATTTAGAGACGGAGTCACCTAGTGCAG” was 9480 fluorescence intensity (a.u.).
The value for “GCTATTTACTTGCTGGCATCAAGGGACAGTGTCATCACTTCGGAGTCACCTAGTGCAG” was 8620 fluorescence intensity (a.u.).
The figure for “TACCGCCGGTTTGACCAACTACCACAACCCGGTCTGACCGCGGAGTCACCTAGTGCAG” is 8530 fluorescence intensity (a.u.).
With “ATCTTTGCACAGAAACTCATCTCCTCATCGTTTATACTTACGGAGTCACCTAGTGCAG”, the binding signal was 8050 fluorescence intensity (a.u.).
The figure for “ATCCTCTTGTTTCGTACAGGTCACTTAAATAGTTATAAAACGGAGTCACCTAGTGCAG” is 8300 fluorescence intensity (a.u.).
For the sequence “TATTTGTTACTAGTATTTCTTTTAGTTTTGGTACCGCTAGCGGAGTCACCTAGTGCAG”, the binding signal is 11200 fluorescence intensity (a.u.).
With “TGCGCTACTATTGTTGTGGCTTGTGCTTTTCAGTTTCCACCGGAGTCACCTAGTGCAG”, the binding signal is 8800 fluorescence intensity (a.u.).
The value for “CTTATTTCTTTTCCAGTTAGGCATATATTATCTGTTTTCTCGGAGTCACCTAGTGCAG” was 8700 fluorescence intensity (a.u.).
